These are yes or no findings as the source states them, for the method shown. In cells and extracts the contact can be indirect. Some binding calls cover weakened binding; strength is not graded here. Sequences can lack the tags named with a protein.

Experiment in all cases: anti-FLAG co-IP, LC-MS/MS
Assay [1] has as its target T1, Clb2 (Saccharomyces cerevisiae) (UniProt P24869).
T1 sequence (looked up): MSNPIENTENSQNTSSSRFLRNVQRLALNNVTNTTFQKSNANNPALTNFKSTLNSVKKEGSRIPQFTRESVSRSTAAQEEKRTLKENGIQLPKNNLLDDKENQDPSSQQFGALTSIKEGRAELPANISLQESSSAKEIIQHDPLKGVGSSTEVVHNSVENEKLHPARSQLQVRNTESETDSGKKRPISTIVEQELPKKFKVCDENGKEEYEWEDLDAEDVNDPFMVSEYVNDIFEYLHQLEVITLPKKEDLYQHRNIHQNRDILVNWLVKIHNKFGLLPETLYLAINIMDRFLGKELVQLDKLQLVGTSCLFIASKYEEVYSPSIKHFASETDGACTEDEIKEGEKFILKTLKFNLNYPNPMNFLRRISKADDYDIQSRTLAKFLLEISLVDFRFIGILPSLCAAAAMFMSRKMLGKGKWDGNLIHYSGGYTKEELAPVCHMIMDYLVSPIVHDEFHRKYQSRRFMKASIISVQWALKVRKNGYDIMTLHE

In assay [2] the target is T2, Hsl7 (Saccharomyces cerevisiae) (UniProt P38274).
T2 sequence (looked up): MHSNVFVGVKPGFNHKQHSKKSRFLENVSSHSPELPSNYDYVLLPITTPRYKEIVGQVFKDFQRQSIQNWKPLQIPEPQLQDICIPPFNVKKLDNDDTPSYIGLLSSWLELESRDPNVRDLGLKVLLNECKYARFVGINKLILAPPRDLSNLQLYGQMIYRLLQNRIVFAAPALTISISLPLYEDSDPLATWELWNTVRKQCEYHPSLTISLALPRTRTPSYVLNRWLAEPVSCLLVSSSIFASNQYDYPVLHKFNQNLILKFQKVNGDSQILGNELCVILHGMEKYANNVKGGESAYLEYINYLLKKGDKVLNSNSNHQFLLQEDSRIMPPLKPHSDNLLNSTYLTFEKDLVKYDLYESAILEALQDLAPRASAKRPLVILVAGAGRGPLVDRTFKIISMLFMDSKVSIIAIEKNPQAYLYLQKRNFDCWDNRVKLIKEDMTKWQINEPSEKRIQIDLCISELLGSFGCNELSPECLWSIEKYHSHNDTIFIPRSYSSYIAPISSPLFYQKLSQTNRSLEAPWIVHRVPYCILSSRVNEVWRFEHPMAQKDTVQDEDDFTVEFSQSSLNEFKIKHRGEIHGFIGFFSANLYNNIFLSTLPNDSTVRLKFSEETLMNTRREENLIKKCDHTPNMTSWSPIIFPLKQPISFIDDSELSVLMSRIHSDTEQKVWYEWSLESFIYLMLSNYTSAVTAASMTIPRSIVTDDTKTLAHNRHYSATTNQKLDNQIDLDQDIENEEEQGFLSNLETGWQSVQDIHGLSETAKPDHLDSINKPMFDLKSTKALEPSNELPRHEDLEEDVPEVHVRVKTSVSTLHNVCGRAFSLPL

Assay [3] concerns the target T3, Kel1 (Saccharomyces cerevisiae) (UniProt P38853).
T3 sequence (looked up): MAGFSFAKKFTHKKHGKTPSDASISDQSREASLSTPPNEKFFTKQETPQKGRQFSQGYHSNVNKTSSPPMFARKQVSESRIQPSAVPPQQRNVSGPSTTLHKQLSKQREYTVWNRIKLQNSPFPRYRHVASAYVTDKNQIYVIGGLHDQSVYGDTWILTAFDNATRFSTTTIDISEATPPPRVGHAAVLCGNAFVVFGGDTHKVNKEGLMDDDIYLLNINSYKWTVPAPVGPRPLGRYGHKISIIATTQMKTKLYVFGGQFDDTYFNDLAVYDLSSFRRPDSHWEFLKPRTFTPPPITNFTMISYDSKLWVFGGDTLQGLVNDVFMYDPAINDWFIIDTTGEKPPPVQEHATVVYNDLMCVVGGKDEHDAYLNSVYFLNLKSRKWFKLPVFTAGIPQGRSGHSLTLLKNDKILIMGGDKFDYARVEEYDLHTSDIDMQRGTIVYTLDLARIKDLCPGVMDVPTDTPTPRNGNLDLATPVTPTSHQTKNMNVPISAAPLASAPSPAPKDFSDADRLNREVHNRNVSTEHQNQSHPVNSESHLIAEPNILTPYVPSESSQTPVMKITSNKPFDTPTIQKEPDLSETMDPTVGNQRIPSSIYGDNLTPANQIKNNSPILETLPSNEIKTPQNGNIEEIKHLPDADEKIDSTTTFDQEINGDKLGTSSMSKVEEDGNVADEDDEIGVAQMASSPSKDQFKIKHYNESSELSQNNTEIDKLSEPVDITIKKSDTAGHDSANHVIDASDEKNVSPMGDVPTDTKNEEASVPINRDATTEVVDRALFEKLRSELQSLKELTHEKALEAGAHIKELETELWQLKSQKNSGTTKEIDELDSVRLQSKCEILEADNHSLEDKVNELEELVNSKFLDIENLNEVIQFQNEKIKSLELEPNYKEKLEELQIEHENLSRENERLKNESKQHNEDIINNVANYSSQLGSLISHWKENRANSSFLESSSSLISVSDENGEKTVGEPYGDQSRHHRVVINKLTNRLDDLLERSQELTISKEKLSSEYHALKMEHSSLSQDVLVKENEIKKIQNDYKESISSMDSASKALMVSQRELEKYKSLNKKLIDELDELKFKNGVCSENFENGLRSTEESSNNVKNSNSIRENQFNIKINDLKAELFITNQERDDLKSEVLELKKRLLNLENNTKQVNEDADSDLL

Assay [4] addresses T4, Cdc15 (Saccharomyces cerevisiae) (UniProt P27636).
T4 sequence (looked up): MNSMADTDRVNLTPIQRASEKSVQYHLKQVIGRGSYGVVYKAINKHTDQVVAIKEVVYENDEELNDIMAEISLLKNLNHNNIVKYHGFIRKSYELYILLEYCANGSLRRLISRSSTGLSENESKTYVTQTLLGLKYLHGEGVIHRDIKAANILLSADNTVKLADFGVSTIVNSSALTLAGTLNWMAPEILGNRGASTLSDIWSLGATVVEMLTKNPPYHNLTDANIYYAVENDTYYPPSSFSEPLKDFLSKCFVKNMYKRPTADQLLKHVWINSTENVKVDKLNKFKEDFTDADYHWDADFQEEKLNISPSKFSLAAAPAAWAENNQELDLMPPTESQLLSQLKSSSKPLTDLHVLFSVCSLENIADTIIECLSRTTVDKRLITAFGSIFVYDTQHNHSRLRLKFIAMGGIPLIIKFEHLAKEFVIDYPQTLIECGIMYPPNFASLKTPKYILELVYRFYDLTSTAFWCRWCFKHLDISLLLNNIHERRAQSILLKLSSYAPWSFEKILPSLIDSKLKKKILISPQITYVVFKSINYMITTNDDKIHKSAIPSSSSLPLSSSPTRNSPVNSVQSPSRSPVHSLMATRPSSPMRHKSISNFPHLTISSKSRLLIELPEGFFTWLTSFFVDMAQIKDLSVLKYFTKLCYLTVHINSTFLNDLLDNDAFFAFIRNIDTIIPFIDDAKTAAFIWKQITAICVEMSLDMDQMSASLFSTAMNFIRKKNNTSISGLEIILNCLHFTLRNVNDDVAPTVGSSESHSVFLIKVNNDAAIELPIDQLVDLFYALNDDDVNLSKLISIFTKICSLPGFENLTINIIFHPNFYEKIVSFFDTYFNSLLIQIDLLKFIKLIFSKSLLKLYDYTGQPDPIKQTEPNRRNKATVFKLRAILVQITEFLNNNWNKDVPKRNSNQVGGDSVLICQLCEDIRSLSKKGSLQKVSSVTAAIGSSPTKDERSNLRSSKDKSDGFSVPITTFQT

Assay [5] deals with T5, Bfa1 (Saccharomyces cerevisiae) (UniProt P47113).
T5 sequence (looked up): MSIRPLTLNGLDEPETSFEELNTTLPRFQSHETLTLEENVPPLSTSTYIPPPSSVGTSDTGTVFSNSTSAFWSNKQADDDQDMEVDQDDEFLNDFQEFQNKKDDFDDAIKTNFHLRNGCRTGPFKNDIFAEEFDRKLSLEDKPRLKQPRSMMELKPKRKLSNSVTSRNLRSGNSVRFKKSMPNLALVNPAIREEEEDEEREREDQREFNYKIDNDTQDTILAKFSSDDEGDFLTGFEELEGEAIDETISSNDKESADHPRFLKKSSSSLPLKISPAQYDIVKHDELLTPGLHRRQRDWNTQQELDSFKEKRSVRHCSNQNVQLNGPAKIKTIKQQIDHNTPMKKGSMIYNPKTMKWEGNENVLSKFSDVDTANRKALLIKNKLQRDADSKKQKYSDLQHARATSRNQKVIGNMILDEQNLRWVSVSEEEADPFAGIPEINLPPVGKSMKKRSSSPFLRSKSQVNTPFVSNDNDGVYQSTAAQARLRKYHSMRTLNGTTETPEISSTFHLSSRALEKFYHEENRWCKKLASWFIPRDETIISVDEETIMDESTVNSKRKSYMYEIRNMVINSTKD

B1: Swe1 (protein, Saccharomyces cerevisiae, UniProt P32944 1-819, looked up)
chain: MSSLDEDEEDFEMLDTENLQFMGKKMFGKQAGEDESDDFAIGGSTPTNKLKFYPYSNNKLTRSTGTLNLSLSNTALSEANSKFLGKIEEEEEEEEEGKDEESVDSRIKRWSPFHENESVTTPITKRSAEKTNSPISLKQWNQRWFPKNDARTENTSSSSSYSVAKPNQSAFTSSGLVSKMSMDTSLYPAKLRIPETPVKKSPLVEGRDHKHVHLSSSKNASSSLSVSPLNFVEDNNLQEDLLFSDSPSSKALPSIHVPTIDSSPLSEAKYHAHDRHNNQTNILSPTNSLVTNSSPQTLHSNKFKKIKRARNSVILKNRELTNSLQQFKDDLYGTDENFPPPIIISSHHSTRKNPQPYQFRGRYDNDTDEEISTPTRRKSIIGATSQTHRESRPLSLSSAIVTNTTSAETHSISSTDSSPLNSKRRLISSNKLSANPDSHLFEKFTNVHSIGKGQFSTVYQVTFAQTNKKYAIKAIKPNKYNSLKRILLEIKILNEVTNQITMDQEGKEYIIDYISSWKFQNSYYIMTELCENGNLDGFLQEQVIAKKKRLEDWRIWKIIVELSLALRFIHDSCHIVHLDLKPANVMITFEGNLKLGDFGMATHLPLEDKSFENEGDREYIAPEIISDCTYDYKADIFSLGLMIVEIAANVVLPDNGNAWHKLRSGDLSDAGRLSSTDIHSESLFSDITKVDTNDLFDFERDNISGNSNNAGTSTVHNNSNINNPNMNNGNDNNNVNTAATKNRLILHKSSKIPAWVPKFLIDGESLERIVRWMIEPNYERRPTANQILQTEECLYVEMTRNAGAIIQEDDFGPKPKFFI
Turning to B1, the binding result in assay [1], in assay [2] and in assay [3] was “binds” each time.

B2: Tem1 (protein, Saccharomyces cerevisiae, UniProt P38987 1-245, looked up)
chain: MATPSTGANNSIPAVRNQVEVQVGLVGDAQVGKTSLMVKYVQNIYDKEYTQTLGVNFLKRKVSIRSTDIIFSIMDLGGQREFINMLPIATVGSSVIIFLFDLTRPETLSSIKEWYRQAYGLNDSAIPILVGTKYDLLIDLDPEYQEQISRTSMKYAQVMNAPLIFCSTAKSINIQKIFKIALAKIFNLTLTIPEINEIGDPLLIYKHLGGQQHRHHNKSQDRKSHNIRKPSSSPSSKAPSPGVNT
Consider B2, for which the binding entry in assay [4] and in assay [5] was “binds” each time.

These data come from patent US20030162221A1.
